Source: PubChem BioAssay AID1347076 (National Center for Advancing Translational Sciences (NCATS), 2019)
Screen size: about 400,000 compounds; about 13,000 (3.2%) were called active. Inconclusive results, whose numbers are uncertain, are shown with a selection of clear calls. Calls come from the whole dose curve; as a rule, active = well fitted cell-killing curve with a large enough effect; inconclusive = small, poorly fitted or top-dose-only effect, or effect the other way; inactive = flat fitted curve, though single readings scatter. Potencies beside an inconclusive call are fits to weak or partial responses and may not hold up.

Experiment: qHTS assay for MDR1-selective chemotherapeutics: Primary screen using the drug-selected MDR subline cells KB-V1; note: nearly all actives have a fitted effect of over 60% in size
Details: KB-V1 MDR cells viability, CellTiter-Glo, 72 h; activity change, negative = cytotoxicity: at 46.1 µM (top of the series)
Outline: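 Cells of the MDR subline KB-V1 are plated, dosed with compound at multiple concentrations, and incubated 72 h at 37 degrees C; CellTiter-Glo is then added and luminescence read after 10 min.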
% is set by controls: 0 for no effect and ±100 for the full control effect; potency is the fitted concentration of half-maximal effect.

SMILES | activity change, negative = cytotoxicity | Potency
CC(=O)c1ccc(NC(=O)CSc2nc(=O)cc(N)n2-c2ccccc2)cc1 | inactive: 24.5% | –
COc1ccc(CN2CN(C(C)C)CSC2=S)cc1 | – | inconclusive: 29.1 µM [cytotoxic, single point]
Cc1ccc(S(=O)(=O)c2ccc(Cl)cc2)cc1S(=O)(=O)N1CCOCC1 | – | inconclusive: 5.17 µM [cytotoxic, partial curve]
Cc1ccc(-n2nnnc2SCC(=O)NNC(=O)c2ccco2)c(C)c1 | inactive: -16.4% | –
COc1c(C)cc(C(=O)C2CCCN(S(=O)(=O)c3c(C)noc3C)C2)cc1C (stereo not given) | – | inconclusive: 9.2 µM [cytotoxic, partial curve]
COc1ccc(Cl)cc1NC(=O)[C@@H]1CCCN1C(=O)c1cccs1 | – | inconclusive: 10.3 µM [cytotoxic, partial curve, poor fit]
CCn1c(SCC(=O)Nc2ccccc2OC)nc2ccccc2c1=O | – | inconclusive: 11.6 µM [cytotoxic, partial curve, poor fit]
CCC(=O)N1CCN(c2ccc(NC(=O)COc3ccccc3[N+](=O)[O-])cc2)CC1 | – | inconclusive: 29.1 µM [cytotoxic, single point]
CCOc1c(Cl)cc(C(=O)Nc2ccccc2-c2ccccc2)cc1Cl | – | active: 20.6 µM
CC(=O)NC1C(=O)N(CCN2CCOCC2)c2ccc(C)cc21 (stereo not given) | – | inconclusive: 18.4 µM [cytotoxic, single point]
CN(C(=O)OC(C)(C)C)c1ccc(-c2nc3ccccc3s2)cc1 | inactive: -3.37% | –
Cc1cccc(-c2n[nH]c(=S)n2C)c1 | – | active: 20.6 µM
Cc1cc2ccccn2c1C(=O)c1cccc(F)c1 | – | inconclusive: 29.1 µM [cytotoxic, single point]
CCCN(CCC)CCCNC(=O)C1CCC(CNS(=O)(=O)c2ccc(NC(C)=O)cc2)CC1 (stereo not given) | – | inconclusive: 20.6 µM [rising, single point]
CC(C)(C)NC(=O)C(c1ccc(C#N)cc1)n1c(=O)c(-c2cc3ccccc3[nH]2)nc2ccccc21 (stereo not given) | – | inconclusive: 23.1 µM [cytotoxic, single point]
CCC1CCc2c(sc3nc(SCC(=O)NCc4ccco4)n(-c4ccccc4)c(=O)c23)C1 (stereo not given) | – | inconclusive: 23.1 µM [cytotoxic, single point]
COCCn1ccc(O)c(Cc2ccc(Cl)cc2)c1=O | inactive: 1.34% | –
CCOc1ccc(-c2cc(C(=O)NCCCn3ccnc3)c3cc(Br)ccc3n2)cc1 | – | inconclusive: 8.2 µM [cytotoxic, partial curve]
Cn1cnnc1SCC(=O)NC1CCCCCC1 | inactive: 12.1% | –
Cc1ccc(/C=C/c2nc3ccccc3c(=O)[nH]2)cc1 | inactive: -2.61% | –

A draw from above in order of heavy-atom count, low to high.
SMILES | activity change, negative = cytotoxicity | Potency
Cn1cnnc1SCC(=O)NC1CCCCCC1 | inactive: 12.1% | –
Cc1cc2ccccn2c1C(=O)c1cccc(F)c1 | – | inconclusive: 29.1 µM [cytotoxic, single point]
CCOc1c(Cl)cc(C(=O)Nc2ccccc2-c2ccccc2)cc1Cl | – | active: 20.6 µM
